Experimental data taken from PubChem BioAssay AID2685 (National Center for Advancing Translational Sciences (NCATS), 2010).
The other results are listed elsewhere or left out. The main result of the screen is listed elsewhere. These columns were measured beside it and carry no call. Most of these compounds were active or inconclusive in the main read-out, so they are no random draw. The note in brackets gives the kind of curve behind each potency; many fits are weak.

Assay: qHTS Assay for Lipid Storage Modulators in Drosophila S3 Cells;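 as to cell number change: cells counted by Cell Tracker Red CMTPX staining in the red channel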
Settings: BODIPY lipid droplet fluorescence, 18-24 h; for cell number change: measured here: cell count max response, cells fed with added oleic acid
In short: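 Drosophila S3 cells got compounds at several concentrations plus oleic acid (400 uM solution). Laser-scanning cytometry with 488 nm excitation read lipid droplets at 500-530 nm and cells at 575-640 nm. Percent activity was relative to 20 uM Triacsin C.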

[1] = measured here: lipid fluorescence (Fed channel) AC50, cells fed with added oleic acid
[2] = measured here: cell number channel AC50, cells fed with added oleic acid

| SMILES | cell number change [%] | AC50 [1] | AC50 [2] |
| --- | --- | --- | --- |
| CCOc1ccc(C(=O)Nc2ccc(N3CCN(C)CC3)cc2)cc1Br | 0.225 | 6510 nM [rising, single point] |  |
| O=C(N/N=C/c1ccco1)c1csc2c1CCCC2 | 14.5 |  |  |
| CCOC(=O)c1ccc([N+](=O)[O-])c(CS(=O)(=O)c2ccc(Cl)cc2)c1 | 24.4 |  |  |
| Cc1noc(/C=C/N(C)C)c1S(=O)(=O)N1CCN(c2ccccc2)CC1 | 38.4 | 29100 nM [rising, single point] | 18.4 nM [rising, full curve, poor fit] |
| CC(C)C(=O)Nc1c(C(=O)c2ccc(F)cc2)oc2ccccc12 | -0.506 | 206 nM [falling, full curve, poor fit] |  |
| Nc1nc(Cl)cc(N2CCC(c3cc(-c4ccc(Cl)cc4)n[nH]3)CC2)n1 | -0.96 | 29100 nM [falling, single point] |  |
| Cc1c(Cl)cccc1NC(=S)NC1CCN(C(C)C)CC1 | -11.1 | 116 nM [falling, full curve, poor fit] |  |
| CCCCCC[n+]1c(-c2ccccc2)csc1Nc1ccccc1 | -12.8 | 16400 nM [falling, single point] |  |
| CCSc1nnc(-c2ccc(OC)cc2)o1 |  | 731 nM [rising, single point] |  |
| COc1ccc(CC(=O)Oc2ccc(Br)cc2F)cc1S(=O)(=O)N1CCOCC1 | 11.3 | 16400 nM [falling, single point] |  |
| Cc1c(NC(=O)COc2ccccc2Cl)c(=O)n(-c2ccccc2)n1C | -4.64 | 29100 nM [rising, single point] |  |
| CN(CC(=O)Nc1ccc(F)cc1)C(=O)C1CC(=O)N(Cc2ccccc2)C1 (centres undefined) | 37.6 | 100 nM [rising, full curve, poor fit] |  |
| O=C(O)c1ccc(OCC(O)Cn2cnc3ccccc32)cc1 (centres undefined) | -5.15 | 11600 nM [falling, single point] | 4110 nM [rising, single point] |
| O=C(O/N=C1\CCS(=O)(=O)c2sccc21)C1CC1 | -53.9 |  | 16400 nM [falling, single point] |
| O=C(OCC(=O)N1CCCC1)c1cc([N+](=O)[O-])ccc1Cl | 5.41 | 130 nM [falling, full curve, poor fit] |  |
| COC(=O)c1sccc1NC(=S)N1CCCC(C)C1 (centres undefined) | 6.47 | 461 nM [rising, single point] | 580 nM [rising, full curve] |
| CCCCn1c(=O)n(CC(=O)Nc2ccc(C)c(Cl)c2)c(=O)c2c1ncn2Cc1ccco1 |  | 259 nM [rising, full curve, poor fit] | 2060 nM [rising, partial curve] |

Some of these compounds in order of number of heavy atoms, largest number first.

| SMILES | cell number change [%] | AC50 [1] | AC50 [2] |
| --- | --- | --- | --- |
| Cc1c(NC(=O)COc2ccccc2Cl)c(=O)n(-c2ccccc2)n1C | -4.64 | 29100 nM [rising, single point] |  |
| CCCCCC[n+]1c(-c2ccccc2)csc1Nc1ccccc1 | -12.8 | 16400 nM [falling, single point] |  |
| O=C(O)c1ccc(OCC(O)Cn2cnc3ccccc32)cc1 (centres undefined) | -5.15 | 11600 nM [falling, single point] | 4110 nM [rising, single point] |
| COC(=O)c1sccc1NC(=S)N1CCCC(C)C1 (centres undefined) | 6.47 | 461 nM [rising, single point] | 580 nM [rising, full curve] |
